This series is described as follows: Odor description.

Read-outs that look alike come from different tables or passages of the source.

As for `CC/C=C\CC(C)OC(=O)c1ccccc1O` (centres unmarked) [(Z)-4-Hepten-2-yl salicylate], the Odor description result is “crisp floral and green note reminiscent of aspects of certain lily species and frangipani”. In addition, for the setting “listed as (Z)-4-hepten-2-yl salicylate”, the Odor description entry was “very crisp floral and green note reminiscent of aspects of certain lily species and frangipani”.
On to `CC/C=C\C(C)COC(=O)c1ccccc1O` (centres unmarked) [(Z)-2-Methyl-3-hexen-1-yl salicylate], for which the Odor description entry is “floral, green, watery”.
As for `CC/C=C\CCOC(=O)c1cccc(C)c1O` [(Z)-3-Hexen-1-yl 2-hydroxy-3-methylbenzoate], the Odor description entry was “floral, balsamic, slightly green and watery”.
Take `CCC#CCC(C)OC(=O)c1ccccc1O` (centres unmarked) [4-Heptyn-2-yl salicylate]: the Odor description entry is recorded as “white-floral scent reminiscent of certain lily species”.

The record behind these values is patent US7842660B2, “4-hepten-2-yl salicylate and its use as fragrance ingredient” (Givaudan SA, priority 2004, dated 2010).
